Source: publication PMC7450096, “Structural mechanism for replication origin binding and remodeling by a metazoan origin recognition complex and its co-loader Cdc6” (Nature Communications, 2020)
Results are given in words; binding and its absence hold for the method and conditions named. Some results given as binding are weak or reduced against the parent protein; the word gives no strength. Blank lines part the entries; values can stand above or below the binder they belong to.

Key:
Test in all cases: cryo-EM structure; DmORC^Orc1ΔN (2.5 μM), duplex DNA (3 μM; 60 bp AT-rich, 84 bp AT-rich, 60 bp poly(dA·dT) or 60 bp GC-rich) and DmCdc6ΔN (6.8 μM) assembled at 25 °C in 25 mM HEPES-KOH pH 7.6, 250 mM potassium acetate, 10 mM magnesium acetate, 1 mM DTT, 1 mM ATP; purified by gel filtration; both purified
[1] = biological target: T1, Drosophila Orc2, subunit of DmORC^Orc1ΔN (Drosophila, UniProt Q24168 1-618)
T1 construct: Orc2, Drosophila; only Orc1 is named as truncated in DmORC^Orc1ΔN; also called DmOrc2; source: Hi5 insect cells, co-expressed with the other ORC subunits, purified as part of DmORC^Orc1ΔN
T1 sequence: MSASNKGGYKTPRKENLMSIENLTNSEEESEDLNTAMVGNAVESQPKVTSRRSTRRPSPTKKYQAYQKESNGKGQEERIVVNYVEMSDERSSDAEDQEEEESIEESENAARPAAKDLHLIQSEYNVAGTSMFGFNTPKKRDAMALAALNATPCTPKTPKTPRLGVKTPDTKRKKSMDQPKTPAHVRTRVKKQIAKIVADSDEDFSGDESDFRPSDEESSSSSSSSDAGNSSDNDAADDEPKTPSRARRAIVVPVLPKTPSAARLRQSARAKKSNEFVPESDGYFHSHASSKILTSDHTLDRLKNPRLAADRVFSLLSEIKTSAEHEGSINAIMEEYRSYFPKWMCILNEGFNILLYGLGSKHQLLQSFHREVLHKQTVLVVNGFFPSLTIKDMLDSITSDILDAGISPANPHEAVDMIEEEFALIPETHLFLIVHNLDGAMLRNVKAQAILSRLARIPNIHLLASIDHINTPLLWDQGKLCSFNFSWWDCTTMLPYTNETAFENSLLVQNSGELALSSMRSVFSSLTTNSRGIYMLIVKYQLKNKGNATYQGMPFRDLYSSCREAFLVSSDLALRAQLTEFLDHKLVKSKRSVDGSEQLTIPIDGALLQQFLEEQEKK

[2] = biological target: T2, Drosophila Orc5, subunit of DmORC^Orc1ΔN (Drosophila) (UniProt Q24169)
T2 sequence: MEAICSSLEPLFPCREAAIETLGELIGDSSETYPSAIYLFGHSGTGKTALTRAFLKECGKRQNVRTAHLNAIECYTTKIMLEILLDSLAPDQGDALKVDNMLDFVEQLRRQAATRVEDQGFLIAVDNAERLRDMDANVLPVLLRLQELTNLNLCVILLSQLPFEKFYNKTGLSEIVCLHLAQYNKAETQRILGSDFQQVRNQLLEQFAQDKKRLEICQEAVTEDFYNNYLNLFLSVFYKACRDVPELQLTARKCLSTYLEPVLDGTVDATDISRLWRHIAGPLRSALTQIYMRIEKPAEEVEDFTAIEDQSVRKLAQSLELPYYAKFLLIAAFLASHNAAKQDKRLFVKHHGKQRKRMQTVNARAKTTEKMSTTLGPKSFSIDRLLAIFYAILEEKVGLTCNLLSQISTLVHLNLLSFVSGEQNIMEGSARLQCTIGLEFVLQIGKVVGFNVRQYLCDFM

[3] = biological target: T3, Drosophila Orc3, subunit of DmORC^Orc1ΔN (Drosophila, UniProt Q7K2L1 1-721)
T3 construct: Orc3, Drosophila; only Orc1 is named as truncated in DmORC^Orc1ΔN; also called DmOrc3; source: Hi5 insect cells, co-expressed with the other ORC subunits, purified as part of DmORC^Orc1ΔN
T3 sequence: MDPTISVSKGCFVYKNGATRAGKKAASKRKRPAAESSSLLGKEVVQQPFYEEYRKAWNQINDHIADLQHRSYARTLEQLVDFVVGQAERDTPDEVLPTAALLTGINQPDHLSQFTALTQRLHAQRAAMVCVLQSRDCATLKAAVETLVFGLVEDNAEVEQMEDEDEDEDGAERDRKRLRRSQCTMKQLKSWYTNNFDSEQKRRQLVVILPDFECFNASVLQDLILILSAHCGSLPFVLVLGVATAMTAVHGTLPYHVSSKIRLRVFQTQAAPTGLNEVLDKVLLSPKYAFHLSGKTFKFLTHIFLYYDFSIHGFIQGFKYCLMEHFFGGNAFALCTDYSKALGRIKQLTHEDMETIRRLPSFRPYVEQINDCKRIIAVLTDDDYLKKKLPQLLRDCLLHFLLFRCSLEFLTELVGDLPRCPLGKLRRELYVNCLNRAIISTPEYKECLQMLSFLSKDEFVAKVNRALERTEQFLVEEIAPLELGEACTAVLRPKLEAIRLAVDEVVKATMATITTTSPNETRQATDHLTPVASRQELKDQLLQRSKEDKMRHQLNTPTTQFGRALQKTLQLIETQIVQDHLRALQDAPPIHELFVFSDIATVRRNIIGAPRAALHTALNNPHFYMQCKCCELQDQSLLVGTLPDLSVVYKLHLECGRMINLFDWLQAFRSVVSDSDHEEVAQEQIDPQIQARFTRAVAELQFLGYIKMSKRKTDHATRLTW

- binding [1]: binds
B1: Drosophila Orc3, subunit of DmORC^Orc1ΔN (protein, UniProt Q7K2L1 1-721)
chain: MDPTISVSKGCFVYKNGATRAGKKAASKRKRPAAESSSLLGKEVVQQPFYEEYRKAWNQINDHIADLQHRSYARTLEQLVDFVVGQAERDTPDEVLPTAALLTGINQPDHLSQFTALTQRLHAQRAAMVCVLQSRDCATLKAAVETLVFGLVEDNAEVEQMEDEDEDEDGAERDRKRLRRSQCTMKQLKSWYTNNFDSEQKRRQLVVILPDFECFNASVLQDLILILSAHCGSLPFVLVLGVATAMTAVHGTLPYHVSSKIRLRVFQTQAAPTGLNEVLDKVLLSPKYAFHLSGKTFKFLTHIFLYYDFSIHGFIQGFKYCLMEHFFGGNAFALCTDYSKALGRIKQLTHEDMETIRRLPSFRPYVEQINDCKRIIAVLTDDDYLKKKLPQLLRDCLLHFLLFRCSLEFLTELVGDLPRCPLGKLRRELYVNCLNRAIISTPEYKECLQMLSFLSKDEFVAKVNRALERTEQFLVEEIAPLELGEACTAVLRPKLEAIRLAVDEVVKATMATITTTSPNETRQATDHLTPVASRQELKDQLLQRSKEDKMRHQLNTPTTQFGRALQKTLQLIETQIVQDHLRALQDAPPIHELFVFSDIATVRRNIIGAPRAALHTALNNPHFYMQCKCCELQDQSLLVGTLPDLSVVYKLHLECGRMINLFDWLQAFRSVVSDSDHEEVAQEQIDPQIQARFTRAVAELQFLGYIKMSKRKTDHATRLTW

- binding [2]: binds
B2: Drosophila Orc4, subunit of DmORC^Orc1ΔN (protein, UniProt Q9W102 1-459)
chain: MPEADRELVSIRRFLKERLQRDYTTLRGYAKERSNVRLLLQRTAEMGESNSLLLLGPRGSGKTTLINSVLADLLPNKSFGENTLIVHLDGNLHTDDRVALKSITVQMQLENAADGKVFGSFAENLAFLLQCLKAGGKHSKSVIFILEEFDLFCAHHNQTLLYNLFDVSQSAQAPICVLGVTCRLDVIELLEKRVKSRFSHRQVFLFPSLRRFEDYVDLCRDLLSLPTGNSLLLAAEKIYNLQNIQSGALYFSRNHFDPGEYGFSPRLRDAWNKQICKVLATQQARSTLQALHDFDISEAYLKNFLFRLVAHLRPQSPHITAEKMAAVGSQFEGDDKIELLCGLSVLELCLIIAIKHHSQIYDRDSFNFEIIYARFSKFAKVSTTMQAVERSIVLKAFEHLRIAELIMPLTGGAGGGVGKVQKEFEMHKLALTYSQIHHCMQRYQALPTEVAQWAQSSLI

- binding [3]: binds
B3: Drosophila Orc5, subunit of DmORC^Orc1ΔN (protein, UniProt Q24169 1-460)
chain: MEAICSSLEPLFPCREAAIETLGELIGDSSETYPSAIYLFGHSGTGKTALTRAFLKECGKRQNVRTAHLNAIECYTTKIMLEILLDSLAPDQGDALKVDNMLDFVEQLRRQAATRVEDQGFLIAVDNAERLRDMDANVLPVLLRLQELTNLNLCVILLSQLPFEKFYNKTGLSEIVCLHLAQYNKAETQRILGSDFQQVRNQLLEQFAQDKKRLEICQEAVTEDFYNNYLNLFLSVFYKACRDVPELQLTARKCLSTYLEPVLDGTVDATDISRLWRHIAGPLRSALTQIYMRIEKPAEEVEDFTAIEDQSVRKLAQSLELPYYAKFLLIAAFLASHNAAKQDKRLFVKHHGKQRKRMQTVNARAKTTEKMSTTLGPKSFSIDRLLAIFYAILEEKVGLTCNLLSQISTLVHLNLLSFVSGEQNIMEGSARLQCTIGLEFVLQIGKVVGFNVRQYLCDFM
